PubChem BioAssay AID1508597 | Cure First, 2020

Test: 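Knock-downs altering ovarian cancer cell survival with or without PARP inhibitor rucaparib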 (primary screen)
System: human ovarian carcinoma lines grown from tumours: OCI-P5x (papillary serous) and OCI-C5x (clear cell)
Reagents: siRNA pool against human genes, 1.25 pmol siRNA per well
Time to read-out: 72 h or 96 h, depending on the cell culture
Conditions: rucaparib 20 µM (about IC30) or vehicle, present until read-out
Rucaparib or vehicle: Vehicle
Cell line: OCI-C5x (clear cell)
Read-out: 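Luminescent ATP-based viability assay read 72 or 96 h after transfection, depending on culture, given as normalised percent viability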
Scale: viability, normalised: higher = more viable cells remaining
Active means: 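a well counts as a hit if its normalised viability is under 80 percent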
Calls: active = viability under 80%; inactive = viability 80% or more
Shown is an unselected part of the about 2,100 reagents, in one setting of the screen. 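Calls flag viability under 80% in either arm, not effects specific to rucaparib; the reference for percent is not stated.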 Some reagents were tested in more than one well and are listed for each. Not stated in the record: the 100% reference.

The opening 3 entries, to show the layout:
| gene symbol | technical replicate | viability, normalised (%) | outcome |
| --- | --- | --- | --- |
| DNM3 | 1 | 54.3 | active |
| DNM3 | 2 | 40 | active |
| DNM3 | 3 | 54.3 | active |

Main list, repeating the preview:
| gene symbol | technical replicate | viability, normalised (%) | outcome |
| --- | --- | --- | --- |
| DNM3 | 1 | 54.3 | active |
| DNM3 | 2 | 40 | active |
| DNM3 | 3 | 54.3 | active |
| MYO3A | 1 | 101 | inactive |
| MYO3A | 2 | 45 | active |
| MYO3A | 3 | 71.5 | active |
| RPA1 | 1 | 29.3 | active |
| RPA1 | 1 | 29.6 | active |
| RPA1 | 2 | 20 | active |
| RPA1 | 2 | 31.6 | active |
| RPA1 | 3 | 26.8 | active |
| RPA1 | 3 | 26.7 | active |
| INO80 | 1 | 33.4 | active |
| INO80 | 2 | 34.1 | active |
| INO80 | 3 | 44 | active |
| TOP2A | 1 | 31.8 | active |
| TOP2A | 2 | 50.1 | active |
| TOP2A | 3 | 50.1 | active |
| RIGI | 1 | 47.7 | active |
| RIGI | 2 | 61.4 | active |
| RIGI | 3 | 48.1 | active |
| CAMKV | 1 | 53.1 | active |
| CAMKV | 2 | 62.9 | active |
| CAMKV | 3 | 55.8 | active |
| JAK1 | 1 | 59.6 | active |
| JAK1 | 2 | 53.6 | active |
| JAK1 | 3 | 49.8 | active |
| MAP3K19 | 1 | 95.8 | inactive |
| MAP3K19 | 2 | 58.3 | active |
| MAP3K19 | 3 | 55.9 | active |
| MTRF1 | 1 | 50.7 | active |
| MTRF1 | 2 | 56.6 | active |
| MTRF1 | 3 | 68.8 | active |
| FOS | 1 | 37.1 | active |
| FOS | 2 | 29.5 | active |
| FOS | 3 | 59.3 | active |
| PRKCZ | 1 | 81.3 | inactive |
| PRKCZ | 2 | 66 | active |
| PRKCZ | 3 | 64.3 | active |
| DGKQ | 1 | 55.4 | active |
| DGKQ | 2 | 77.1 | active |
| DGKQ | 3 | 59.1 | active |
| STRADA | 1 | 79.2 | active |
| STRADA | 2 | 55.8 | active |
| STRADA | 3 | 50 | active |
| HDAC1 | 1 | 53.4 | active |
| HDAC1 | 1 | 36.4 | active |
| HDAC1 | 2 | 37.9 | active |
| HDAC1 | 2 | 44 | active |
| HDAC1 | 3 | 54.8 | active |
| HDAC1 | 3 | 42.1 | active |
| PFKM | 1 | 63.6 | active |
| PFKM | 2 | 48 | active |
| PFKM | 3 | 55.5 | active |
| EIF4A1 | 1 | 33.1 | active |
| EIF4A1 | 2 | 39.7 | active |
| EIF4A1 | 3 | 40.5 | active |
